# Screening data

Source: PubChem BioAssay AID1159506 (NCATS, 2015).

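Genome-wide siRNA knockdown in TC32 Ewing sarcoma cells, comparing luciferase light from an NR0B1-promoter reporter with a CMV-promoter reporter 48 hours after transfection. Each siRNA was applied at 20 nM. A z-score of the log NR0B1-over-CMV signal, less the median of siRNAs with the same seed; more negative means a stronger specific loss of the NR0B1 reporter.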

This is part of the screen; most of the strongest results are not listed here. Sequences are the guide (antisense) strand, without overhang.

- UCUGAGUAAAGAACUUCCC against ZNF501 | seed-corrected z-score 0.056
- UUGAUGAUCAGGUCCACGG against FASN | seed-corrected z-score -0.4208
- UCAUAGUUCAGGUACUCUG against MARS | seed-corrected z-score -0.1459
- AUUGUGACGAAUGAAGUCC against ENKD1 | seed-corrected z-score -1.017
- ACUUUGCUCUGUAAAAUGC against LOC255187 | seed-corrected z-score 0.07321
- AGAUUGACCAGGCUCUUAC against NLRP13 | seed-corrected z-score -0.4724
- UAAACCCAGCCGUCCUUGG against WWOX | seed-corrected z-score 0.4107
- UUUGUUGAAAUCGUCUUCG against MAP4K4 | seed-corrected z-score 0.2841
- AAAUCGGACAAUGUGGUCG against AMHR2 | seed-corrected z-score 0.274
- AAAAGUAACAGAUGUAGCG against TMEM14B | seed-corrected z-score 0.7316
- UUCGAGUUGAGAUGACACU against NFIB | seed-corrected z-score 0.8728
- UUUGGUACCGAAACACCGG against LHX1 | seed-corrected z-score -0.8231
- UUUGUUCUGAGCUUAUUUG against DOC2B | seed-corrected z-score -0.6766
- UGCAUAUUCACCGUUAAAG against PSPH | seed-corrected z-score -1.469
- UUUGAGUAUAGUUUUUGCC against MOB1B | seed-corrected z-score 0.3292
- UUGUUGUGCACAGAGUUGU against SLC6A19 | seed-corrected z-score 0.7214
- UAUUUAUCUUUUCCCAUGU against CCDC25 | seed-corrected z-score 0.1287
- UUUCUGUAUAGGUGAUACC against FKBP11 | seed-corrected z-score -0.0446
- AUCCGAAAAAUACAAGAAG against OR1E2 | seed-corrected z-score 0.1258
- UGAGAUUUGAGCAAAUUCC against NOL9 | seed-corrected z-score 1.002
- UUCUAUUUUAAACCAUUCC against NUDT3 | seed-corrected z-score 0.2472
- UUAGUUUCUGGGUAUCCAG against REXO1L8P | seed-corrected z-score 0.5268
- UAUAUCUCAAGGGAGAACA against OR52H1 | seed-corrected z-score -0.3563
- UUCGGUUAUAAGGCACAGC against LRRK2 | seed-corrected z-score -0.4888
- ACUUUAAGCAAACACGUGU against ODF3B | seed-corrected z-score -0.3632
- AGCUUUGUUAGGAUCAGCC against HHIPL2 | seed-corrected z-score -1.759
- UCAGGCUCGAUGUCAAUGG against GPX1 | seed-corrected z-score -1.152
- UUUGUAGUCACAGAUCUGC against FAM185A | seed-corrected z-score 0.3193
- UUCAGUUCACUUCUCGACC against BFAR | seed-corrected z-score 0.6194
- UACUGUUACAGUGAUCCAG against RNF138 | seed-corrected z-score -0.2936
- UCGUAUAUCUUUCUACUUC against PCDHGB7 | seed-corrected z-score 0.06275
- UCAGUGUCCAUACUUGAUC against OGG1 | seed-corrected z-score 0.8992
- UUUCCGACUAGAAGCAUGG against CCDC80 | seed-corrected z-score -0.4295
- ACUGUGAUCACAGCUGUUG against CDH1 | seed-corrected z-score 0.9498
- AAUGCUAAAGCUUCUAUGU against KRTAP3-3 | seed-corrected z-score 0.574
- UUUCUCCUCAUUGUAAUUG against CHRND | seed-corrected z-score 0.2535
- UACGGUCGCAGUGUCUCCU against KCNQ4 | seed-corrected z-score 0.958
- UCCUCGGAAAGGUAGUGUC against MEPCE | seed-corrected z-score 0.1702
- UUUGUAAUCUAGCUGGAUG against MXRA8 | seed-corrected z-score -0.178
- AGAAUAUCCAGGAUAGUGU against GMPR | seed-corrected z-score -0.03703
- UUAGUUAUACCACUGUCAC against TRIM52 | seed-corrected z-score -2
- UUAACUCUAUAGUCCAUUG against GLRB | seed-corrected z-score 0.5903
- UAUUCGACGACAUCCAUCA against SAMD1 | seed-corrected z-score 0.424
- UCACGUUCUUGAGUCUCUC against ARCN1 | seed-corrected z-score -1.934
- UAGAUUAUCCUGCUUAGUC against KRT222 | seed-corrected z-score 0.1497
- UGCAUGAUGAUUGUUCUCG against DEFB132 | seed-corrected z-score -0.6481
- UAAUUGUAGACAGUUGAAG against AOC1 | seed-corrected z-score -0.1834
- UUCGUUAAAGAGCCUCUGU against C19orf12 | seed-corrected z-score 0.4191
- AUAAUGAUAAAUCGAGUCC against THSD7B | seed-corrected z-score 0.7287